{"source": "paper PMC4036194", "binders": {"B1": {"name": "Full-length human β3 subunit with a carboxyl-terminal Myc epitope tag (protein, UniProt Q9NY72 23-215)", "chain": "FPVCVEVPSETEAVQGNPMKLRCISCMKREEVEATTVVEWFYRPEGGKDFLIYEYRNGHQEVESPFQGRLQWNGSKDLQDVSITVLNVTLNDSGLYTCNVSREFEFEAHRPFVKTTRLIPLRVTEEAGEDFTSVVSEIMMYILLVFLTLWLLIEMIYCYRKVSKAEEAAQENASDYLAIPSENKENSAVPVEE"}, "B2": {"name": "Nav channel β3 subunit Ig domain with carboxyl-terminal hexa-His tag (domain or fragment, UniProt Q9NY72 25-145)", "chain": "VCVEVPSETEAVQGNPMKLRCISCMKREEVEATTVVEWFYRPEGGKDFLIYEYRNGHQEVESPFQGRLQWNGSKDLQDVSITVLNVTLNDSGLYTCNVSREFEFEAHRPFVKTTRLIPLRV", "modifications": "disulfide bonds Cys-2–24 and Cys-21–96"}}, "key": {"[1]": {"target": "Human Nav 1.5 α subunit with a carboxyl-terminal hemagglutinin (HA) epitope tag (human) (UniProt Q14524)", "assay": "co-IP; detergent extract (1% Triton X-100) of tsA 201 cells co-transfected with HA-tagged α and Myc-tagged β3; anti-HA agarose, HA peptide elution; anti-Myc immunoblot; 4 °C"}, "[2]": {"target": "Full-length human β3 subunit with a carboxyl-terminal Myc epitope tag (human) (UniProt Q9NY72)", "assay": "atomic force microscopy (AFM) imaging; Myc-tagged β3 (wild type or C24A) immunoisolated from tsA 201 detergent extract, diluted to ~40 pM, adsorbed to mica, imaged in air in tapping mode; molecular volumes of particles; both purified"}, "[3]": {"target": "Nav channel β3 subunit Ig domain with carboxyl-terminal hexa-His tag (human) (UniProt Q9NY72)", "assay": "AUC + cross-linking; sedimentation velocity, chemically cross-linked β3 Ig domain at 0.5 mg/ml, 40,000 rpm, 20 °C, interference data; both purified"}}, "note": "Results are given in words; binding and its absence hold for the method and conditions named. For part of these data: Binding seen in cells or lysates may run through a third protein. Some entries that bind do so weakly or less than the wild type. Tags and fused reporters may be left off the sequences shown."}
{"binder": "B1", "values": [{"measurement": "binding", "setting": "[1]", "result": "binds weakly"}, {"measurement": "binding", "setting": "[2]", "result": "binds weakly"}]}
{"binder": "B2", "values": [{"measurement": "binding", "setting": "[3]", "result": "binds weakly"}]}
